PubChem BioAssay AID504808, Drosophila RNAi Screening Center – 2011
In all, the deposit lists about 21,000 reagents; below is a random part of those with a known target gene and a result. In the full data, 18 (0.084%) were called active. 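Raw counts without plate normalisation, one of two replicates; the ratio scores behind the calls were not deposited.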 A number with no mark means an inactive call. Names joined by + are all predicted targets of the reagent. No sequences are given here. Not stated in the record: the amount of reagent, the time to read-out.

Aim: 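Fly genes required to hold E2F transcription in check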 (primary screen)
Cells: Drosophila S2 cells
Reagent: long dsRNA against Drosophila genes
Measurement: 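Firefly luciferase driven by E2F sites, normalised to Renilla luciferase on the same minimal promoter, measured by plate reader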
Scale: E2F firefly: higher = more E2F reporter activity; Renilla normaliser: higher = more normaliser reporter signal
Active means: 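Called active if the normalised E2F reporter went up by over 50%; the cutoff is arbitrary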

| target gene | dsRNA | E2F firefly, rep 1 | Renilla normaliser, rep 1 |
| --- | --- | --- | --- |
| Acp65Aa (GeneID 38710) | DRSC09663 | 1.04e5 | 4014 |
| CG34297 (GeneID 5740802) | DRSC12410 | 72435 | 3578 |
| Cpr72Ea (GeneID 39814) | DRSC10451 | 82183 | 3989 |
| CG12869 (GeneID 36616) | DRSC06208 | 1.05e5 | 4262 |
| CG15456 (GeneID 50123) | DRSC20527 | 1.34e5 | 5664 |
| CG13813 (GeneID 40218) | DRSC10068 | 1.17e5 | 5246 |
| Nsun2 (GeneID 45064) | DRSC18662 | 1883 | 804 |
| inaF-B + inaF-D + inaF-C + 1 more | DRSC20342 | 68822 | 4617 |
| CG13063 (GeneID 39797) | DRSC09946 | 1.60e5 | 7811 |
| Hand (GeneID 34379) | DRSC02656 | 1.42e5 | 4698 |
| TM9SF3 (GeneID 38635) | DRSC09747 | 95922 | 3926 |
| bgcn (GeneID 47873) | DRSC04062 | 1.00e5 | 4454 |
| bgcn (GeneID 47873) | DRSC04063 | 95283 | 3998 |
| CG5274 (GeneID 40257) | DRSC11774 | 77266 | 3412 |
| enc (GeneID 44543) | DRSC08716 | 1.02e5 | 4314 |
| FAM21 (GeneID 37331) | DRSC06623 | 71872 | 3371 |
| CG5888 (GeneID 34980) | DRSC01929 | 79771 | 4012 |
| CG18258 (GeneID 32708) | DRSC19798 | 1.36e5 | 6921 |
| Cdk9 (GeneID 37586) | DRSC04601 | 79274 | 4551 |
| CG3257 (GeneID 37862) | DRSC04351 | 78539 | 3739 |
| CG9393 (GeneID 41152) | DRSC16486 | 80623 | 3424 |
| CG11906 (GeneID 37209) | DRSC06096 | 1.53e5 | 4874 |
| CG18547 (GeneID 41452) | DRSC15345 | 1.33e5 | 5910 |
| Zwilch (GeneID 59247) | DRSC15376 | 1.32e5 | 6592 |
| Spt20 (GeneID 39522) | DRSC10280 | 82162 | 5908 |
| Zasp67 (GeneID 39148) | DRSC10169 | 76024 | 2184 |
| CG30393 (GeneID 246588) | DRSC04253 | 90650 | 4024 |
| beat-VII (GeneID 43213) | DRSC13780 | 90683 | 2477 |
| beat-VII (GeneID 43213) | DRSC14743 | 1.22e5 | 6197 |
| beat-VII (GeneID 43213) | DRSC14744 | 1.17e5 | 5779 |
| Rcd2 (GeneID 40283) | DRSC11756 | 1.73e5 | 7054 |
| atms (GeneID 40593) | DRSC12310 | 83188 | 3731 |
| CG18302 (GeneID 34452) | DRSC02663 | 1.48e5 | 4883 |
| rno (GeneID 38027) | DRSC08584 | 96213 | 3789 |
| Fit1 (GeneID 38488) | DRSC08450 | 71520 | 3033 |
| thw (GeneID 40868) | DRSC12552 | 1.35e5 | 6560 |
| Spn38F (GeneID 49806) | DRSC03616 | 90046 | 3869 |
| CG31189 (GeneID 42487) | DRSC16198 | 1.45e5 | 7788 |
| Uros1 (GeneID 31817) | DRSC18191 | 7296 | 744 |
| Mnn1 (GeneID 33991) | DRSC03368 | 1.60e5 | 4990 |
| Chchd3 (GeneID 43672) | DRSC16981 | 78751 | 6341 |
| CG8517 (GeneID 37268) | DRSC07205 | 1.60e5 | 5389 |
| CG18810 (GeneID 59171) | DRSC02701 | 91768 | 3944 |
| CG14306 (retired record) (GeneID 42231) | DRSC14785 | 1.31e5 | 6347 |
| mtDNA-helicase (GeneID 34307) | DRSC02912 | 1.55e5 | 5481 |
| SLIRP1 + anox | DRSC20542 | 1.62e5 | 5411 |
| CG4259 (GeneID 33385) | DRSC00645 | 1.83e5 | 6262 |
| CG4409 (GeneID 36840) | DRSC06869 | 1.40e5 | 4397 |
| CG33267 (GeneID 2768969) | DRSC09120 | 1.22e5 | 5106 |
| Pxn (GeneID 38326) | DRSC08685 | 79469 | 3335 |
| CG15253 (GeneID 34916) | DRSC01871 | 97810 | 3932 |
| Dif (GeneID 35045) | DRSC03316 | 1.00e5 | 4571 |
| pkm (GeneID 32108) | DRSC19674 | 7998 | 688 |
| U3-55K (GeneID 3346176) | DRSC05982 | 1.03e5 | 4450 |
| Paip2 (GeneID 41591) | DRSC14504 | 71223 | 3200 |
| Tctp (GeneID 41341) | DRSC15649 | 1.57e5 | 6987 |
| CG4520 (GeneID 41902) | DRSC15590 | 1.31e5 | 6396 |
| CG15269 (GeneID 34887) | DRSC01942 | 89192 | 4006 |
| CG2694 (GeneID 31260) | DRSC18470 | 1646 | 920 |
| CG9981 (GeneID 32609) | DRSC20225 | 1.56e5 | 7756 |
| CG32191 (GeneID 317903) | DRSC10522 | 1.74e5 | 9008 |
| CG3505 (GeneID 41777) | DRSC15489 | 59223 | 3152 |
| CG31802 (GeneID 318949) | DRSC02459 | 91673 | 4325 |
| TTLL3B (GeneID 33946) | DRSC02133 | 1.49e5 | 4870 |
| Nt5a (GeneID 38148) | DRSC08561 | 78063 | 3447 |
| Act57B (GeneID 37368) | DRSC04042 | 85865 | 4241 |
| CG14182 (GeneID 40181) | DRSC10181 | 1.46e5 | 6531 |
| lectin-29Ca (GeneID 53547) | DRSC02635 | 1.40e5 | 4944 |
| CG15909 (GeneID 35572) | DRSC04977 | 92255 | 4137 |
| bnl (GeneID 42356) | DRSC13377 | 81322 | 2469 |
| bnl (GeneID 42356) | DRSC16913 | 61761 | 3148 |
| eIF3h (GeneID 45682) | DRSC01995 | 1.07e5 | 4264 |
| ich (GeneID 41069) | DRSC12715 | 67837 | 4723 |
| ich (GeneID 41069) | DRSC14448 | 1.26e5 | 5850 |
| Eig71Ee (GeneID 39706) | DRSC11152 | 1.73e5 | 7047 |
| CG11158 (GeneID 32327) | DRSC19389 | 1.16e5 | 5537 |
| Fak (GeneID 37233) | DRSC07426 | 1.53e5 | 5280 |
| CG17177 (GeneID 39601) | DRSC10257 | 1.49e5 | 6524 |
| CG3253 (GeneID 37861) | DRSC04350 | 83842 | 3340 |
| CG6800 (GeneID 42562) | DRSC16119 | 1.65e5 | 7577 |
| CG9445 (GeneID 50147) | DRSC05006 | 1.56e5 | 5136 |
| Acbp3 (GeneID 38783) | DRSC11022 | 95708 | 3994 |
| Pdp1 (GeneID 45588) | DRSC08896 | 48825 | 3247 |
| Pdp1 (GeneID 45588) | DRSC08897 | 79901 | 3027 |
| Pdp1 (GeneID 45588) | DRSC11251 | 88473 | 3892 |

Entries above whose gene name begins with Z or z:
| target gene | dsRNA | E2F firefly, rep 1 | Renilla normaliser, rep 1 |
| --- | --- | --- | --- |
| Zwilch (GeneID 59247) | DRSC15376 | 1.32e5 | 6592 |
| Zasp67 (GeneID 39148) | DRSC10169 | 76024 | 2184 |
